# In patent US6489307B1, “Antisense compositions targeted to β1-adrenoceptor-specific mRNA and methods of use” (University of Florida, priority 1998, dated 2002):
# Assays:
# [1] = system: β1-AR; assay: β-AR density in myocardium after ischemia-reperfusion (binding assay); parameters: species or system Sprague-Dawley rats; details: rat, in vivo
# Procedure: Membrane protein was prepared from left ventricles as previously described (Baker and Pitha, 1982). For saturation studies, 100 μg membrane protein was incubated in triplicate with ^125I-(−)iodocyanopindolol (I-CYP, NEN Life Science, 6.25-100 pM) in a total volume of 250 μl containing 50 mM Tris-HCl (pH 7.4), 5 mM MgCl2 at 36° C. for 60 min. The nonspecific and β2-adrenoceptor binding were determined in the presence of 1 μM (±)-alprenolol and […] (RBI), respectively. Then the reaction mixture was passed through Whatman GF/B glass filter using Brandel harvester and the radioactivity was counted for one min.
# [2] = system: SHRs; assay: Telemetric monitoring of conscious SHRs during dobutamine infusion; type: in vivo, rat (SHR); details: 1 mg/kg
# Procedure: Two days after catherization of the jugular vein, control values were taken and 1 mg/kg β1-AS-ODN was injected. 48 hr later, rats were tested for the effect of β1-AS-ODN. The rats were allowed to recover until all the cardiovascular parameters returned to control values. […] For β1-stimulation, SHRs were infused with dobutamine (β1-selective agonist) through a jugular vein catheter at 5, 10, 20, and 40 μg·kg^−1·min.^−1. Each dose was given for 5 min. continuously and at 1-hr intervals until all the cardiovascular parameters returned to baseline values so as to avoid the effect of tachyphylaxis. BP and HR were sampled every 1 min. dP/dtmax was calculated from the slope of the rising pulse-pressure curve and determined every 1 min. The difference between values at each dose and baseline was denoted as Δ.
# Two days after catheterization of jugular vein, control values were taken and 1 mg/kg β1-AS-ODN was injected. Forty-eight hr later, rats were tested for the effect of β1-AS-ODN. The rats were allowed to recover until all the cardiovascular parameters returned to control values. […] For β1-stimulation, SHR were infused with dobutamine (β1-selective agonist) through jugular vein catheter at 5, 10, 20, 40 μg/kg/min. Each dose was given for 5 min continuously and at 1-hr intervals until all cardiovascular parameters returned to baseline so as to avoid the effect of tachyphylaxis. BP and HR were sampled every min. dP/dtmax was calculated from the slope of the rising pulse pressure curve and determined every min. The difference between values at each dose and baseline was denoted as Δ.
structure (smiles),measurement,setting,value
CC(C)NCC(O)COc1ccc(CC(N)=O)cc1 (stereo not shown) [atenolol],effect on β1-AR density in ischemic-reperfused myocardium,[1],no effect
same,decline in ΔdP/dtmax and ΔHR relative to β1-AS-ODN,[2]; during a 5 hr period after injection,more profound decline
same,basal dP/dtmax,[2]; control 2937±277,2450±295 mm Hg/s
same,resting dP/dtmax,[2]; control 2937±277,2450±295 mmHg/sec
